Reference: patent EP2921176A2, “PHARMACEUTICAL COMPOSITION FOR TREATMENT OF PROSTATIC HYPERPLASIA” (priority 2012, dated 2014)

Test: Mass of animals in the rat BPH model
Type: in vivo
Conditions: rats with BPH

SMILES	Mass of animals, g At end of experiment (1 mg/kg/day in stomach for 18 days)	Mass of animals, g At end of experiment (10 mg/kg/day in stomach for 18 days)
COc1cc2nc(N3CCN(C(=O)C4COc5ccccc5O4)CC3)nc(N)c2cc1OC (centres unmarked) [Doxazosin]	311 ± 5 g	
CC(C)(C)NC(=O)[C@H]1CC[C@H]2[C@@H]3CC[C@H]4NC(=O)C=C[C@]4(C)[C@H]3CC[C@]12C [Finasteride]		312 ± 9 g
